# Results taken from US5340814A, “3-substituted methyl-2,3-dihydroimidazo[1,2-C] quinazoline derivatives, the preparation and use thereof” (National Science Council, priority 1992, dated 1994).
# Test system: α2-adrenergic receptor
# Test: α2-Adrenergic receptor binding, [^3 H] clonidine, rat brain cortex membranes
# Settings: ratio of Ki values, α2 over α1
row,SMILES,α2 /α1 ratio
1,"CSC1=Nc2ccccc2C2=NCC(CN3CCN(c4ccccc4Cl)CC3)N12 (centres unmarked) [Example 9, 3-{4-[1-(2-chlorophenyl)piperazinyl]}methyl-5-methylthio-2,3-dihydroimidazo[1,2-c]quinazoline]",529
2,"COc1cccc(N2CCN(CC3CN=C4c5ccccc5N=C(SC)N43)CC2)c1 (centres unmarked) [Example 7, 3-{4-[1-(3-methoxyphenyl)piperazinyl]}methyl-5-methylthio-2,3-dihydroimidazo[1,2-c]quinazoline]",171
